Data from the supplement of paper PMC7646827.
Where a name gives a salt, the structure may show the parent alone. Repeats are few or missing, and single values can be far off.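 All cells are established human bladder cancer lines, one derived from a patient-derived xenograft. A luminescent ATP assay measured viability as percent inhibition relative to vehicle across seven dilutions. The paper rates scores above 59 very active, 30–59 active, 21–29 semi-active, 9–20 low active, below 9 inactive.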

Tests used:
Assay in all cases: drug sensitivity score DSS3 (score 0-100); higher = more sensitive; extreme values may be limits of the assay
Details in all cases: culture: 3D, ultra-low attachment; treatment time: 5 days
BC8149 = tested on: BC8149
UM-UC-17 = tested on: UM-UC-17
TCCSUP = tested on: TCCSUP
UM-UC-5 = tested on: UM-UC-5
UM-UC-6 = tested on: UM-UC-6
SCaBER = tested on: SCaBER
UM-UC-3 = tested on: UM-UC-3
UM-UC-9 = tested on: UM-UC-9
5637 = tested on: 5637
UM-UC-15 = tested on: UM-UC-15
UM-UC-12 = tested on: UM-UC-12
UM-UC-1 = tested on: UM-UC-1
SW780 = tested on: SW780
J82 = tested on: J82
UM-UC-14 = tested on: UM-UC-14
UM-UC-18 = tested on: UM-UC-18
T-24 = tested on: T-24

| SMILES | drug sensitivity score DSS3 (BC8149) | drug sensitivity score DSS3 (UM-UC-17) | drug sensitivity score DSS3 (TCCSUP) | drug sensitivity score DSS3 (UM-UC-5) | drug sensitivity score DSS3 (UM-UC-6) | drug sensitivity score DSS3 (SCaBER) | drug sensitivity score DSS3 (UM-UC-3) | drug sensitivity score DSS3 (UM-UC-9) | drug sensitivity score DSS3 5637 | drug sensitivity score DSS3 (UM-UC-15) | drug sensitivity score DSS3 (UM-UC-12) | drug sensitivity score DSS3 (UM-UC-1) | drug sensitivity score DSS3 (SW780) | drug sensitivity score DSS3 (J82) | drug sensitivity score DSS3 (UM-UC-14) | drug sensitivity score DSS3 (UM-UC-18) | drug sensitivity score DSS3 (T-24) |
| --- | --- | --- | --- | --- | --- | --- | --- | --- | --- | --- | --- | --- | --- | --- | --- | --- | --- |
| Nc1nc(F)nc2c1ncn2[C@@H]1O[C@H](CO)[C@@H](O)[C@@H]1O [Fludarabine] (max dose 10000 nM) | 1.61 | 5.29 | 10.5 | 0 | 8.8 | 0 | 0 | 0.277 | 6.63 | 0 | 1.07 | 3.32 | 0 | 0 | 8.95 | 19 | – |
| COc1ccc(-n2nc(C(N)=O)c3c2C(=O)N(c2ccc(N4CCCCC4=O)cc2)CC3)cc1 [Apixaban] (max dose 10000 nM) | 3.97 | 0 | 0.259 | 0 | 0 | 1.13 | 2.17 | 0 | 0.939 | 0 | 0 | 0.858 | 0 | 0.417 | 0.786 | 2.89 | – |
| Cn1cnc([N+](=O)[O-])c1Sc1ncnc2[nH]cnc12 [Azathioprine] (max dose 10000 nM) | 1.48 | 0.596 | 3.14 | 0.145 | 1.8 | 0.943 | 2.35 | 0 | 2.63 | 0 | 0 | 0 | 0 | 0.868 | 2.79 | 10.5 | – |
| NC1(c2ccc(-c3nc4ccn5c(=O)[nH]nc5c4cc3-c3ccccc3)cc2)CCC1 [MK-2206 2HCl, MK2206] (max dose 10000 nM) | 8.26 | 0 | 14 | 8.52 | 1.21 | 3.18 | 1.12 | 0.529 | 7.74 | 0 | 0 | 1.92 | 0.00459 | 0.0183 | 2.66 | 7.61 | – |
| N#CC[C@H](C1CCCC1)n1cc(-c2ncnc3[nH]ccc23)cn1 (max dose 10000 nM) | 4.01 | 3.13 | 8.52 | 2.7 | 0.0588 | 0 | 1.54 | 1.29 | 12.2 | 0 | 0 | 0.105 | 0.117 | 0 | 1.01 | 0.0297 | – |
| Cc1ccc([N+](=O)[O-])cc1S(=O)(=O)N(C)C (max dose 10000 nM) | – | 0 | 0 | 0 | 0 | – | 0.163 | 0 | 0 | 0 | 0 | 0 | 0 | 0 | 0 | 0 | 0 |
| O=C1[C@H](Cc2ccc(O)cc2)N2C(=O)CCN(C(=O)NCc3ccccc3)[C@H]2CN1Cc1cccc2ccccc12 [ICG-001] (max dose 10000 nM) | 0 | 0 | 0 | 0 | 0.993 | 0.0687 | 0 | 0.292 | 0.873 | 0 | 1.86 | 0 | 0 | 0 | 0.912 | 0 | – |
| CC[C@]1(O)C[C@@H]2CN(CCc3c([nH]c4ccccc34)[C@@](C(=O)OC)(c3cc4c(cc3OC)N(C)[C@H]3[C@@](O)(C(=O)OC)[C@H](OC(C)=O)[C@]5(CC)C=CCN6CC[C@]43[C@@H]65)C2)C1 [Vinblastine sulfate] (max dose 10000 nM) | 37.1 | 48.4 | 63.8 | 29.8 | 39.3 | 27.8 | 39.5 | 31.6 | 54.6 | 0.00681 | 24.9 | 54.1 | 36 | 26.3 | 54.5 | 27.5 | – |
| COc1ccc(Cl)c(Nc2nc3ccccc3nc2NS(=O)(=O)c2cccc(NC(=O)C(C)(C)N)c2)c1 [Pilaralisib (XL147)] (max dose 10000 nM) | – | 0.208 | 4.25 | 0 | 0.613 | – | 1.03 | 0.00685 | 2.71 | 0 | 1.44 | 0.517 | 0 | 0 | 0 | 0 | 0 |
| CNC(=O)[C@@H](NC(=O)[C@H](CCCc1ccccc1)[C@H](C)N(O)C=O)C(C)(C)C (max dose 10000 nM) | 0 | 0 | 0 | 0 | 0 | 0 | 0 | 0 | 0 | 14 | 0 | 0 | 0 | 0 | 0 | 0 | – |
| CCOc1ccc(Cc2cc([C@]34OC[C@](CO)(O3)[C@@H](O)[C@H](O)[C@H]4O)ccc2Cl)cc1 [Ertugliflozin] (max dose 10000 nM) | 0 | 0 | 0 | 0 | 0 | 0 | 0 | 0 | 0 | 16.5 | 0 | 0 | 0 | 0 | 0 | 0 | – |
| C=CC(=O)N1C[C@H](Nc2ncnc3[nH]ccc23)CC[C@@H]1C (max dose 10000 nM) | 0 | 0 | 0 | 0 | 0 | 0 | 0 | 0 | 0 | 0 | 0 | 0 | 0 | 0 | 0 | 0 | – |
| O=C(c1ccc(F)c(F)c1Nc1ccc(I)cc1F)N1CC(O)([C@@H]2CCCCN2)C1 [Cobimetinib (GDC-0973, RG7420)] (max dose 10000 nM) | 13.1 | 3.58 | 25.4 | 26 | 2.01 | 39.6 | 21.4 | 0.931 | 31.5 | 11.7 | 12.1 | 19.4 | 0.959 | 0 | 10.4 | 2.9 | – |
| Cc1cc(C)nc(NC(=S)N2CCN(Cc3ccc(C(F)(F)F)cc3)CC2)c1 [NCT-503] (max dose 10000 nM) | 0 | 0 | 0 | 0 | 0.000902 | 0 | 0 | 0.142 | 0 | 35.7 | 0 | 0 | 0 | 0 | 0 | 0.157 | – |
| CC(C)(C)c1[nH]cnc1/C=c1\[nH]c(=O)/c(=C/c2ccccc2)[nH]c1=O [Plinabulin (NPI-2358)] (max dose 10000 nM) | 13 | 47.3 | 52.4 | 6.25 | 28.8 | 0.0273 | 13.8 | 11 | 36.8 | 0 | 20.9 | 21.3 | 20.5 | 0.017 | 29.2 | 0 | – |
| O=C(c1cccc(Cl)c1F)N1CCN(Cc2cccc(Nc3nccs3)n2)CC1 [MK-8745] (max dose 10000 nM) | 3.46 | 0.72 | 9.13 | 0 | 5.61 | 0 | 0 | 0 | 5.01 | 10.4 | 0.89 | 5.9 | 0.0333 | 0.184 | 2.04 | 0 | – |
| FC(F)c1nc2ccccc2n1-c1nc(N2CCOCC2)nc(N2CCOCC2)n1 [ZSTK474] (max dose 10000 nM) | 28.6 | 0 | 10.6 | 13.1 | 1.44 | 2.81 | 10.2 | 0 | 3.14 | 0 | 4.26 | 0 | 0 | 1.05 | 0.593 | 0 | – |
| CCN1CCN(C(=O)Cc2ccc(Nc3ncc(F)c(Nc4ccc(C(=O)Nc5ccccc5Cl)cc4)n3)cc2)CC1 [Aurora A Inhibitor I] (max dose 10000 nM) | 1.65 | 0 | 3.43 | 0 | 1.3 | 1.43 | 0.65 | 0 | 2.52 | 0.237 | 0.821 | 3.02 | 0 | 0 | 1.33 | 0.871 | – |
| CNC(=O)c1cccc(-c2ccc3c(N4CCOC[C@@H]4C)nc(N4CCOC[C@@H]4C)nc3n2)c1 [AZD2014] (max dose 10000 nM) | 44.5 | 6.89 | 44.4 | 28.5 | 22.6 | 33.1 | 14.5 | 11.4 | 30.5 | 0 | 25.2 | 33.3 | 12.9 | 14.3 | 19.8 | 20.2 | – |
| CO[C@H]1CC[C@H](N2C(=O)CNc3ncc(-c4ccc(C(C)(C)O)nc4)nc32)CC1 [CC-223] (max dose 10000 nM) | 7.62 | 0 | 7.59 | 0.88 | 1.8 | 4.41 | 0.612 | 2.24 | 4.16 | 0.279 | 3.33 | 1.95 | 1.55 | 1.5 | 2.45 | 1.47 | – |
| O=C([C@@H](Cc1cccc(C(F)(F)F)c1)NS(=O)(=O)c1cc(F)c2c(c1)CCNC2)N1CCCC1 [PFI-2 HCl] (max dose 10000 nM) | 0 | 6.47 | 15 | 0 | 4.46 | 0 | 1.55 | 0 | 0.109 | 0 | 0 | 9.95 | 0 | 0 | 8.37 | 0 | – |
| CC(C)c1cc(-c2ccc(F)c3ccccc23)nc(N)n1 (max dose 10000 nM) | 0 | 0 | 0 | 0 | 0 | 0 | 0 | 0 | 0 | 0.139 | 0 | 0 | 0 | 0 | 0 | 0 | – |
| O=C(N/N=C/c1ccc(O)c(O)c1)c1cc2ccccc2cc1O [Dynasore] (max dose 10000 nM) | 0 | 0.234 | 0.447 | 0 | 0.841 | 0 | 0 | 0.268 | 1.23 | 9.7 | 0 | 0 | 0 | 0 | 0 | 0.127 | – |
| CC(C)c1cnn2c(NCc3ccccc3-n3cccn3)nc(OC3CCCNC3)nc12 (stereo not drawn) (max dose 10000 nM) | 0.0951 | 8.48 | 6.78 | 0 | 13.2 | 0.131 | 0 | 1.22 | 4.37 | 30.8 | 0 | 0 | 0 | 0 | 3.78 | 4.55 | – |
| CN1CCN(c2ccc3nc(-c4c(N)c5c(F)cccc5[nH]c4=O)[nH]c3c2)CC1 [Dovitinib (TKI-258, CHIR-258)] (max dose 10000 nM) | 1.02 | 1.62 | 9.34 | 0 | 0.0317 | 5.21 | 0 | 0 | 3.88 | 0 | 7.28 | 0.549 | 0 | 0.956 | 1.75 | 0.742 | – |

3 compounds already listed, ordered by molecular weight, falling.

| SMILES | drug sensitivity score DSS3 (BC8149) | drug sensitivity score DSS3 (UM-UC-17) | drug sensitivity score DSS3 (TCCSUP) | drug sensitivity score DSS3 (UM-UC-5) | drug sensitivity score DSS3 (UM-UC-6) | drug sensitivity score DSS3 (SCaBER) | drug sensitivity score DSS3 (UM-UC-3) | drug sensitivity score DSS3 (UM-UC-9) | drug sensitivity score DSS3 5637 | drug sensitivity score DSS3 (UM-UC-15) | drug sensitivity score DSS3 (UM-UC-12) | drug sensitivity score DSS3 (UM-UC-1) | drug sensitivity score DSS3 (SW780) | drug sensitivity score DSS3 (J82) | drug sensitivity score DSS3 (UM-UC-14) | drug sensitivity score DSS3 (UM-UC-18) | drug sensitivity score DSS3 (T-24) |
| --- | --- | --- | --- | --- | --- | --- | --- | --- | --- | --- | --- | --- | --- | --- | --- | --- | --- |
| COc1ccc(-n2nc(C(N)=O)c3c2C(=O)N(c2ccc(N4CCCCC4=O)cc2)CC3)cc1 [Apixaban] (max dose 10000 nM) | 3.97 | 0 | 0.259 | 0 | 0 | 1.13 | 2.17 | 0 | 0.939 | 0 | 0 | 0.858 | 0 | 0.417 | 0.786 | 2.89 | – |
| Cc1cc(C)nc(NC(=S)N2CCN(Cc3ccc(C(F)(F)F)cc3)CC2)c1 [NCT-503] (max dose 10000 nM) | 0 | 0 | 0 | 0 | 0.000902 | 0 | 0 | 0.142 | 0 | 35.7 | 0 | 0 | 0 | 0 | 0 | 0.157 | – |
| Cc1ccc([N+](=O)[O-])cc1S(=O)(=O)N(C)C (max dose 10000 nM) | – | 0 | 0 | 0 | 0 | – | 0.163 | 0 | 0 | 0 | 0 | 0 | 0 | 0 | 0 | 0 | 0 |
